In the supplement of paper PMC3353916 one finds percent infected data, which are given here for nine substances.

The subject of this data set is Sindbis virus TE/5'2J-GFP. Kind of data set: percent infected (GFP+ in RFP+ ISG-expressing cells); higher = more infection (less antiviral activity). The following applies: experiment: primary screen (single well).

Single values of this set are uncertain.

Take “MSDGDYDYLIKFLALGDSGVGKTSVLYQYTDGKFNSKFITTVGIDFREKRVVYRASGPDGATGRGQRIHLQLWDTAGQERFRSLTTAFFRDAMGFLLLFDLTNEQSFLNVRNWISQLQMHAYCENPDIVLCGNKSDLEDQRVVKEEEAIALAEKYGIPYFETSAANGTNISQAIEMLLDLIMKRMERCVDKSWIPEGVVRSNGHASTDQLSEEKEKGACGC [RAB27A]”: the percent infected by setting is: (BHK/HA-Zeo (control)) 98.5%; (BHK/NZAP-Zeo (ZAP)) 95.1%.

In the case of “MSSENCFVAENSSLHPESGQENDATSPHFSTRHEGSFQVPVLCAVMNVVFITILIIALIALSVGQYNCPGQYTFSMPSDSHVSSCSEDWVGYQRKCYFISTVKRSWTSAQNACSEHGATLAVIDSEKDMNFLKRYAGREEHWVGLKKEPGHPWKWSNGKEFNNWFNVTGSDKCVFLKNTEVSSMECEKNLYWICNKPYK [CD69]”, the percent infected by setting is: (BHK/HA-Zeo (control)) 88.1%; (BHK/NZAP-Zeo (ZAP)) 81.9%.

On to “MRLPDLRPWTSLLLVDAALLWLLQGPLGTLLPQGLPGLWLEGTLRLGGLWGLLKLRGLLGFVGTLLLPLCLATPLTVSLRALVAGASRAPPARVASAPWSWLLVGYGAAGLSWSLWAVLSPPGAQEKEQDQVNNKVLMWRLLKLSRPDLPLLVAAFFFLVLAVLGETLIPHYSGRVIDILGGDFDPHAFASAIFFMCLFSFGSSLSAGCRGGCFTYTMSRINLRIREQLFSSLLRQDLGFFQETKTGELNSRLSSDTTLMSNWLPLNANVLLRSLVKVVGLYGFMLSISPRLTLLSLLHMPFTIAAEKVYNTRHQEVLREIQDAVARAGQVVREAVGGLQTVRSFGAEEHEVCRYKEALEQCRQLYWRRDLERALYLLVRRVLHLGVQMLMLSCGLQQMQDGELTQGSLLSFMIYQESVGSYVQTLVYIYGDMLSNVGAAEKVFSYMDRQPNLPSPGTLAPTTLQGVVKFQDVSFAYPNRPDRPVLKGLTFTLRPGEVTALVGPNGSGKSTVAALLQNLYQPTGGQVLLDEKPISQYEHCYLHSQVVSVGQEPVLFSGSVRNNIAYGLQSCEDDKVMAAAQAAHADDFIQEMEHGIYTDVGEKGSQLAAGQKQRLAIARALVRDPRVLILDEATSALDVQCEQALQDWNSRGDRTVLVIAHRLQTVQRAHQILVLQEGKLQKLAQL [TAP2]”, for which the percent infected is, setting by setting: (BHK/HA-Zeo (control)) 97.8%; (BHK/NZAP-Zeo (ZAP)) 91.8%.

For the setting “BHK/NZAP-Zeo (ZAP)”, “MNTDLAAGKMASAACSMDPIDSFELLDLLFDRQDGILRHVELGEGWGHVKDQQVLPNPDSDDFLSSILGSGDSLPSSPLWSPEGSDSGISEDLPSDPQDTPPRSGPATSPAGCHPAQPGKGPCLSYHPGNSCSTTTPGPVIQVPEASVTIDLEMWSPGGRICAEKPADPVDLSPRCNLTVKDLLLSGSSGDLQQHHLGASYLLRPGAGHCQELVLTEDEKKLLAKEGITLPTQLPLTKYEERVLKKIRRKIRNKQSAQESRKKKKEYIDGLETRMSACTAQNQELQRKVLHLEKQNLSLLEQLKKLQAIVVQSTSKSAQTGTCVAVLLLSFALIILPSISPFGPNKTESPGDFAPVRVFSRTLHNDAASRVAADAVPGSEAPGPRPEADTTREESPGSPGADWGFQDTANLTNSTEELDNATLVLRNATEGLGQVALLDWVAPGPSTGSGRAGLEAAGDEL [CREB3L3]” displayed a percent infected of 96.4%.

With “MSTEADEGITFSVPPFAPSGFCTIPEGGICRRGGAAAVGEGEEHQLPPPPPGSFWNVESAAAPGIGCPAATSSSSATRGRGSSVGGGSRRTTVAYVINEASQGQLVVAESEALQSLREACETVGATLETLHFGKLDFGETTVLDRFYNADIAVVEMSDAFRQPSLFYHLGVRESFSMANNIILYCDTNSDSLQSLKEIICQKNTMCTGNYTFVPYMITPHNKVYCCDSSFMKGLTELMQPNFELLLGPICLPLVDRFIQLLKVAQASSSQYFRESILNDIRKARNLYTGKELAAELARIRQRVDNIEVLTADIVINLLLSYRDIQDYDSIVKLVETLEKLPTFDLASHHHVKFHYAFALNRRNLPGDRAKALDIMIPMVQSEGQVASDMYCLVGRIYKDMFLDSNFTDTESRDHGASWFKKAFESEPTLQSGINYAVLLLAAGHQFESSFELRKVGVKLSSLLGKKGNLEKLQSYWEVGFFLGASVLANDHMRVIQASEKLFKLKTPAWYLKSIVETILIYKHFVKLTTEQPVAKQELVDFWMDFLVEATKTDVTVVRFPVLILEPTKIYQPSYLSINNEVEEKTISIWHVLPDDKKGIHEWNFSASSVRGVSISKFEERCCFLYVLHNSDDFQIYFCTELHCKKFFEMVNTITEEKGRSTEEGDCESDLLEYDYEYDENGDRVVLGKGTYGIVYAGRDLSNQVRIAIKEIPERDSRYSQPLHEEIALHKHLKHKNIVQYLGSFSENGFIKIFMEQVPGGSLSALLRSKWGPLKDNEQTIGFYTKQILEGLKYLHDNQIVHRDIKGDNVLINTYSGVLKISDFGTSKRLAGINPCTETFTGTLQYMAPEIIDKGPRGYGKAADIWSLGCTIIEMATGKPPFYELGEPQAAMFKVGMFKVHPEIPESMSAEAKAFILKCFEPDPDKRACANDLLVDEFLKVSSKKKKTQPKLSALSAGSNEYLRSISLPVPVLVEDTSSSSEYGSVSPDTELKVDPFSFKTRAKSCGERDVKGIRTLFLGIPDENFEDHSAPPSPEEKDSGFFMLRKDSERRATLHRILTEDQDKIVRNLMESLAQGAEEPKLKWEHITTLIASLREFVRSTDRKIIATTLSKLKLELDFDSHGISQVQVVLFGFQDAVNKVLRNHNIKPHWMFALDSIIRKAVQTAITILVPELRPHFSLASESDTADQEDLDVEDDHEEQPSNQTVRRPQAVIEDAVATSGVSTLSSTVSHDSQSAHRSLNVQLGRMKIETNRLLEELVRKEKELQALLHRAIEEKDQEIKHLKLKSQPIEIPELPVFHLNSSGTNTEDSELTDWLRVNGADEDTISRFLAEDYTLLDVLYYVTRDDLKCLRLRGGMLCTLWKAIIDFRNKQT [MAP3K5]”, the percent infected is, setting by setting: (BHK/HA-Zeo (control)) 92.6%; (BHK/NZAP-Zeo (ZAP)) 94.8%.

With “MHRRRSRSCREDQKPVMDDQRDLISNNEQLPMLGRRPGAPESKCSRGALYTGFSILVTLLLAGQATTAYFLYQQQGRLDKLTVTSQNLQLENLRMKLPKPPKPVSKMRMATPLLMQALPMGALPQGPMQNATKYGNMTEDHVMHLLQNADPLKVYPPLKGSFPENLRHLKNTMETIDWKVFESWMHHWLLFEMSRHSLEQKPTDAPPKVLTKCQEEVSHIPAVHPGSFRPKCDENGNYLPLQCYGSIGYCWCVFPNGTEVPNTRSRGHHNCSESLELEDPSSGLGVTKQDLGPVPM [CD74]”, the percent infected (BHK/HA-Zeo (control)) was determined as 94.8% and the percent infected (BHK/NZAP-Zeo (ZAP)) came out at 88.2%.

Turning to “MFSWMGRQAGGRERAGGADAVQTVTGGLRSLYLRKVLPLEEAYRFHEFHSPALEDADFENKPMILLVGQYSTGKTTFIRYLLEQDFPGMRIGPEPTTDSFIAVMYGETEGSTPGNALVVDPKKPFRKLSRFGNAFLNRFMCSQLPNQVLKSISVIDSPGILSGEKQRISRGYDFCQVLQWFAERVDRIILLFDAHKLDISDEFSEAIKAFRGQDDKIRVVLNKADQVDTQQLMRVYGALMWSLGKVINTPEVLRVYIGSFWAQPLQNTDNRRLFEAEAQDLFRDIQSLPQKAAVRKLNDLIKRARLAKVHAYIISYLKKEMPSVFGKENKKRELISRLPEIYIQLQREYQISAGDFPEVKAMQEQLENYDFTKFHSLKPKLIEAVDNMLSNKISPLMNLISQEETSTPTQLVQGGAFDGTTEGPFNQGYGEGAKEGADEEEWVVAKDKPVYDELFYTLSPINGKISGVNAKKEMVTSKLPNSVLGKIWKLADCDCDGMLDEEEFALAKHLIKIKLDGYELPSSLPPHLVPPSHRKSLPKAD [EHD4]”, the percent infected by setting is: (BHK/HA-Zeo (control)) 98.1%; (BHK/NZAP-Zeo (ZAP)) 94.3%.

On to “MGILYSEPICQAAYQNDFGQVWRWVKEDSSYANVQDGFNGDTPLICACRRGHVRIVSFLLRRNANVNLKNQKERTCLHYAVKKKFTFIDYLLIILLMPVLLIGYFLMVSKTKQNEALVRMLLDAGVEVNATDCYGCTALHYACEMKNQSLIPLLLEARADPTIKNKHGESSLDIARRLKFSQIELMLRKAL [ANKRD22]”, for which the percent infected is 91.5% (BHK/HA-Zeo (control)) and 78.8% (BHK/NZAP-Zeo (ZAP)).

Consider NCOA3, for which the percent infected reads like this: (BHK/HA-Zeo (control)) 98.3%; (BHK/NZAP-Zeo (ZAP)) 92%.
